PubChem BioAssay AID1259405, NCATS – 2018

- Purpose: 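Mouse-designed siRNAs used to find CHO productivity engineering targets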 (primary screen)
- Cells: Chinese hamster CHO-K1 ovary cells with stable secreted eGFP expression
- Reagent: single siRNA against mouse genes, 0.8 pmol siRNA per well (2 µl of 400 nM stock)
- Time to read-out: 3 days
- Read-out: 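Percent of the per-plate non-targeting control median for intracellular GFP per well by laser scanning cytometry and for cell viability by ATP luminescence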
- Scale: GFP, % of control: higher = more GFP per well, higher productivity; viability (ATP), % of control: higher = more viable cells (more ATP)
- Hit rule: 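Called active when intracellular GFP, relative to negative control, is at or above 120%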
Shown is one part, drawn at random, of about 50,000 deposited reagents. Of all reagents, about 4,000 (8%) are marked active. 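Mouse siRNA library applied to hamster cells; one well for each siRNA.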 Entries without a mark were called inactive. The numbers tell different reagents against one gene apart. Reagent sequences are not shown.

For Itfg2 #1, the values are GFP, % of control 80.5; viability (ATP), % of control 92.8. Against Itfg2 #2, the values are GFP, % of control 81.8; viability (ATP), % of control 72.7. Itfg2 #3 showed GFP, % of control 58.2; viability (ATP), % of control 76.3. Silencing of Tsc22d3 #1 gave: GFP, % of control 75.1; viability (ATP), % of control 47.6. With knock-down of Tsc22d3 #2, the screen gave GFP, % of control 54.5; viability (ATP), % of control 55.8. Silencing of Tsc22d3 #3 came out at: GFP, % of control 70.4; viability (ATP), % of control 85.7.

With knock-down of Rec8 #1, the record shows GFP, % of control 66.5; viability (ATP), % of control 87. For Rec8 #2 the deposit lists GFP, % of control 68.7; viability (ATP), % of control 65.3. Knock-down of Rec8 #3 came out at: GFP, % of control 62.3; viability (ATP), % of control 78.9. After knock-down of Cckar #1, the screen gave GFP, % of control 98; viability (ATP), % of control 73.8. Cckar #2 showed GFP, % of control 71.8; viability (ATP), % of control 77. After knock-down of Cckar #3 the results were GFP, % of control 105; viability (ATP), % of control 76.7.

With knock-down of Psmb10 #1, the record shows GFP, % of control 54.3; viability (ATP), % of control 73.1. Psmb10 #2 scored GFP, % of control 77.9; viability (ATP), % of control 58.9. Depletion of Psmb10 #3 resulted in: GFP, % of control 40.7; viability (ATP), % of control 45.1. For Slc22a13 #1, the entry reads GFP, % of control 129 (active); viability (ATP), % of control 108. For Slc22a13 #2, the values are GFP, % of control 114; viability (ATP), % of control 73.7. Silencing of Slc22a13 #3 gave: GFP, % of control 202 (active); viability (ATP), % of control 112.

With knock-down of Ddx27 #1, the record shows GFP, % of control 88.9; viability (ATP), % of control 74.6. After knock-down of Ddx27 #2 the results were GFP, % of control 86.6; viability (ATP), % of control 82.3. For Ddx27 #3, the entry reads GFP, % of control 55.7; viability (ATP), % of control 46.5. After knock-down of Tmprss13 #1, the screen gave GFP, % of control 64.8; viability (ATP), % of control 52.6. Tmprss13 #2 showed GFP, % of control 32.5; viability (ATP), % of control 52.9. Depletion of Tmprss13 #3 gave: GFP, % of control 33.6; viability (ATP), % of control 51.

Against Tmco5b #1, the values are GFP, % of control 85.4; viability (ATP), % of control 98.6. With knock-down of Tmco5b #2, the record shows GFP, % of control 81.8; viability (ATP), % of control 69.8. Depletion of Tmco5b #3 gave: GFP, % of control 119; viability (ATP), % of control 77.8. After knock-down of Phyh #1, the record shows GFP, % of control 71.9; viability (ATP), % of control 36.4. Against Phyh #2, the values are GFP, % of control 48.2; viability (ATP), % of control 52.9. Phyh #3 scored GFP, % of control 56.4; viability (ATP), % of control 78.

After knock-down of Ext1 #1, the record shows GFP, % of control 111; viability (ATP), % of control 133. Ext1 #2 showed GFP, % of control 79.3; viability (ATP), % of control 123. For Ext1 #3, the entry reads GFP, % of control 81.8; viability (ATP), % of control 112. Knock-down of Rwdd2b #1 gave: GFP, % of control 43; viability (ATP), % of control 64.7. For Rwdd2b #2, the values are GFP, % of control 75.6; viability (ATP), % of control 77.3. With knock-down of Rwdd2b #3, the record shows GFP, % of control 58; viability (ATP), % of control 65.8.

With knock-down of 4933404G15Rik #1, the screen gave GFP, % of control 48; viability (ATP), % of control 27.1. 4933404G15Rik #2 gave GFP, % of control 57.5; viability (ATP), % of control 89.4. 4933404G15Rik #3 gave GFP, % of control 146 (active); viability (ATP), % of control 178. After knock-down of Abcb10 #1 the results were GFP, % of control 134 (active); viability (ATP), % of control 120. Against Abcb10 #2, the values are GFP, % of control 24.8; viability (ATP), % of control 51.9. Against Abcb10 #3, the entry reads GFP, % of control 127 (active); viability (ATP), % of control 72.2.

Part of the list above in another layout.
target,siRNA no.,"GFP, % of control","viability (ATP), % of control"
Itfg2,1,80.5,92.8
Itfg2,2,81.8,72.7
Itfg2,3,58.2,76.3
Tsc22d3,1,75.1,47.6
Tsc22d3,2,54.5,55.8
